Reference: patent publication US20240092863A1, “ANTIMICROBIAL TARGET” (priority 2020, published 2024)
Part of at least one peptide drawing is inferred or uncertain, most often the ends. Where a SMILES comes first, the peptide text is derived from it. Bridges are numbered along the chain shown (N, C = ends). Where no end group is shown, it is not given here. [ ]: non-standard residue; d: D form. S5 = C=CCCC[C@](C)(N)C(=O)O

Legend:
[1] = Circular dichroism: helical content and helical propensity; type: physicochemical; conditions: PBS pH7, in the absence and the presence of TFE (0%, 10%, 30%); FIG. 10
[2] = test system: P. aeruginosa clinical isolate LVP3; assay: Human ex vivo corneal infection model; parameters: species or system Pseudomonas aeruginosa; conditions: 400 nM peptide, human corneas, 24 hours infection; FIG. 7A
S. aureus SH1000 = assay: Mouse in vivo skin infection model; parameters: species or system Staphylococcus aureus; conditions: mice, 200 nM peptide mixed with S. aureus SH1000 in a bandage on depilated skin; FIG. 9
Method: C57/Bl6 mice were shaved to produce a bare area of approximately 2×2 cm. Depilatory cream was applied to depilate this area. A bandage was applied that contained a saline solution containing 200 nM of mouse 800-CAP, its scrambled control or human 800ii, and S. aureus SH1000. After 5 days, the mice were sacrificed and the depilated skin processed to release bacteria. The infection was assessed as CFU, and normalised to untreated control mice (=100). The experiment was performed 3 times using groups of 3 mice for each condition. Data are shown as the means of each separate experiment. Significance of the difference from 100 was calculated using a one-sample t test.

[3] = test system: P. aeruginosa clinical isolate LVP3; assay: Mouse in vivo microbial keratitis model; parameters: species or system Pseudomonas aeruginosa; conditions: mice, vs saline, FIG. 8A
C57/Bl6 mice corneas = assay: Mouse in vivo corneal wound healing model (fluorescein permeability); conditions: 1000 nM, 24 hrs, vs saline, FIG. 8B
P. aeruginosa PA01 = assay: P. aeruginosa adhesion to HCE-2 human corneal epithelial cells; type: cell-based, Pseudomonas aeruginosa; conditions: HCE2 cells

Row | Molecule | helical content compared with all linear sequences [1] | corneal opacity [2] | bacterial load in skin after 5 days (S. aureus SH1000) | bacterial load after 24 hrs ([3]; single application 500 nM) | bacterial load after 24 hrs ([3]; single application 1000 nM) | wound healing in uninfected corneas (C57/Bl6 mice corneas) | maximal level of inhibition (Imax) of adhesion, P. aeruginosa, compared with the stapled peptides (P. aeruginosa PA01; FIG. 2A) | potency against P. aeruginosa relative to the stapled peptides (less potent) (P. aeruginosa PA01; from log IC50)
1 | CC[C@H](C)[C@H](NC(=O)[C@H](C)NC(=O)[C@H](CCCCN)NC(=O)[C@H](CC(C)C)NC(=O)[C@]1(C)CCCC=CCCC[C@](C)(NC(=O)[C@H](CCC(=O)O)NC(=O)[C@@H](N)CC(=O)O)C(=O)N[C@@H](CCC(N)=O)C(=O)N[C@@H](CCCNC(=N)N)C(=O)N[C@@H](CCC(=O)O)C(=O)N1)C(=O)N[C@@H](Cc1c[nH]cn1)C(=O)N[C@@H](Cc1ccc(O)cc1)C(=O)N[C@@H](C)C(=O)N[C@@H](CC(C)C)C(=O)N[C@@H](CC(N)=O)C(=O)O [800i] (H-DE[S5]QRE[S5]LKAIHYALN-OH; staple 3-7; N-terminus and C-terminus assumed) | consistently more helical | – | – | – | – | – | – | –
2 | CC[C@H](C)[C@@H]1NC(=O)[C@@](C)(NC(=O)[C@H](CCCCN)NC(=O)[C@H](CC(C)C)NC(=O)[C@@H](NC(=O)[C@H](CCC(=O)O)NC(=O)[C@H](CCCNC(=N)N)NC(=O)[C@H](CCC(N)=O)NC(=O)[C@@H]2CCCN2C(=O)[C@H](CCC(=O)O)NC(=O)[C@@H](N)CC(=O)O)[C@@H](C)O)CCCC=CCCC[C@@](C)(C(=O)N[C@@H](CC(C)C)C(=O)N[C@@H](CC(N)=O)C(=O)O)NC(=O)[C@H](Cc2ccc(O)cc2)NC(=O)[C@H](Cc2c[nH]cn2)NC1=O [800ii] (H-DEPQRETLK[S5]IHY[S5]LN-OH; staple 10-14; N-terminus and C-terminus assumed) | consistently more helical | decreasing opacity | significantly reduced | significant reduction | significant reduction | significant enhancement | – | –
3 | DEPQRETLKAIHYALN [800-Cap] | – | – | – | – | – | – | significantly more effective | 2-3 orders of magnitude
